# Data taken from PubChem BioAssay AID720504 (National Center for Advancing Translational Sciences (NCATS), 2013).
# By UniProt entry, the sequences of proteins in these tests, tags left out.
# UniProt P53350, whole entry, looked up: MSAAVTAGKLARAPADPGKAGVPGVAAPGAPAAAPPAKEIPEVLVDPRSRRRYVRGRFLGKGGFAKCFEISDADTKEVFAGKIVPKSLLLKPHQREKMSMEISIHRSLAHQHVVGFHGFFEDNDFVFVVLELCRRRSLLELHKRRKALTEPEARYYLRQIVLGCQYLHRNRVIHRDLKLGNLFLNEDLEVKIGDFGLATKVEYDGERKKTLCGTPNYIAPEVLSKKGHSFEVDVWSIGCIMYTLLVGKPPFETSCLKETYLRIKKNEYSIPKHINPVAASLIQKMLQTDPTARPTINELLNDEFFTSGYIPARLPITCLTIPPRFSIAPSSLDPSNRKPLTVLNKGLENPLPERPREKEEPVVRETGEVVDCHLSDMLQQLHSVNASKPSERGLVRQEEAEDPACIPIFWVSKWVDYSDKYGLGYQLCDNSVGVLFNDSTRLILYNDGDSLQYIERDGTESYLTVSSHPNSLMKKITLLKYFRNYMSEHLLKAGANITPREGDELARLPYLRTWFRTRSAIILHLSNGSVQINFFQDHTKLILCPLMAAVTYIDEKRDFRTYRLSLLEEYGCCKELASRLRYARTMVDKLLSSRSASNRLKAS
# Several values for one entry are separate records, joined by “and”; a condition that tells them apart may be missing. Identical values can stand only once. The campaign covered roughly 360,000 compounds. About 10,000 (2.8%) were called active. This list was built around the results that the source calls inconclusive (neither active nor inactive); the mix of calls is not that of the screen. The call rests on the fitted dose curve; in most records, active means well fitted inhibition curve with a large enough effect; inconclusive means small, poorly fitted or top-dose-only effect; inactive means flat fitted curve, though single readings scatter. A potency beside an inconclusive call is a rough fit, not a confirmed value.
# Target: Serine/threonine-protein kinase PLK1 (Homo sapiens) (UniProt P53350)
# Assay: qHTS for Inhibitors of PLK1-PDB (polo-like kinase 1 - polo-box domain): Primary Screen; further: nearly all actives have a fitted effect of over 65% in size; on max response, negative = inhibition: series mostly up to about 57 µM
# Details: Plk1 PBD binding of FITC phosphopeptide, fluorescence polarization
# On the % scale 0 is the no-effect control and ±100 the full control effect; potency means the concentration at half of the fitted maximal effect.
SMILES,Potency,"max response, negative = inhibition"
CS(=O)(=O)N(CC(=O)N1CCCC1)c1ccc(OCc2ccccc2)cc1,"inconclusive: 37.7 µM [inhibitor, single point]",–
CCOC(=O)c1ccc(N=c2sc(C(=O)OC)cc(=O)n2Cc2ccco2)cc1,–,inactive: -10.9%
O=C(O)c1cccc(Nc2nc3ccccc3nc2NS(=O)(=O)c2ccc(F)cc2)c1,–,inconclusive: -33.4% [inhibitor]
O=C(N/C=C/c1ccco1)OCc1ccccc1,–,inactive: -0.744%
Clc1ccc(-c2nc3ccc(Cl)cn3c2Cc2ccsc2)cc1,"inconclusive: 37.7 µM [inhibitor, single point]",–
O=C(O)COc1ccc(NC(=O)c2ccco2)cc1,"inconclusive: 37.7 µM [inhibitor, single point]",–
CCOc1ccc(CC(=O)Nc2sc(Cc3ccccc3)c(C)c2C(N)=O)cc1OCC,"inconclusive: 26.7 µM [inhibitor, partial curve]",–
Cc1ccc2c3c1C1(C(=O)N3C(C)(C)CC2C)C(C#N)=C(N)Oc2cc(O)ccc21 (centres undefined),"inconclusive: 23.8 µM [inhibitor, single point]",–
Cc1cccc(N2C(=O)CC(Sc3ncn[nH]3)C2=O)c1 (centres undefined),active: 26.7 µM,–
COC1=CC(=O)C=C(OC)C1(O)CC(C)=O,"inconclusive: 37.7 µM [inhibitor, single point]",–
CC(=O)C(Sc1nn(C)c(=S)s1)C(=O)Nc1ccccc1 (centres undefined),active: 26.7 µM,–
Cc1ccccc1CCN(C(=O)Cn1nnc2ccccc21)C(C(=O)NCC1CCCO1)c1nc2ccccc2n1C (centres undefined),–,inactive: -3.99%
Cc1ccc(C)c(NC(=O)CCC(=O)N/N=C/c2ccc[nH]2)c1,–,inactive: -1.87%
CCOC(=O)CCCCCC(=O)Nc1ccc2c(c1)C(=O)N([C@@H](C)CO)C[C@@H](C)[C@H](CN(C)C(=O)c1ccncc1)OCCCC[C@H](C)O2,–,inactive: -18.6%
CC1N(C)c2cccc3cccc(c23)N1C,"inconclusive: 4.74 µM [inhibitor, full curve]",–
Cc1ccc(/C=C/C(=O)NC(=S)Nc2ccc(S(=O)(=O)Nc3cc(C)on3)cc2)cc1,"inconclusive: 29.9 µM [inhibitor, single point]",–
O=C(N/N=C/c1ccc(F)cc1)c1cc(-c2ccco2)nc2ccccc12,"inconclusive: 21.2 µM [inhibitor, partial curve]",–
CCOC(=O)N1CCN(C(=O)c2cc(OC)c(OC)c(OC)c2)CC1,–,inactive: 3.2%
O=C(c1cccc(OC2CCN(Cc3ccc(F)cc3)CC2)c1)N1CCCC1,active: 21.2 µM,–
COc1ccc(CCNC(=S)N2CCN(S(=O)(=O)c3ccccc3)CC2)cc1,"inconclusive: 26.7 µM [inhibitor, single point]",–
COc1ccc(CNC(=O)Nc2cccs2)cc1OC,–,inconclusive: -32% [inhibitor]
O=C(O)c1cc2cc(S(=O)(=O)O)ccc2cc1O,–,inactive: -2.8%
O=C(CCCC(=O)NCc1ccc(F)cc1)NCc1ccc(F)cc1,active: 23.8 µM,–
O=C(NC(=S)N1CCCCC1)c1cccnc1,–,inactive: -11.6%
O=C(NN1C(=O)/C(=C\c2cccnc2)SC1=S)c1ccco1,–,inactive: -16.9%

SMILES,Potency,"max response, negative = inhibition"
CC(=O)Nc1cc2c(cc1[N+](=O)[O-])-c1ccccc1C2O (centres undefined),"inconclusive: 29.9 µM [inhibitor, single point]",–
CCOc1ccc(C(=O)Nc2cccc(C)n2)cc1,"inconclusive: 21.2 µM [inhibitor, single point]",–
CC1(C)Cc2c(sc(NC(=O)c3ccccc3)c2C(=O)O)CO1,active: 13.4 µM,–
COc1ccccc1OCC(=O)NCC1CCCN(C(=O)c2ccccc2SC)C1 (centres undefined),active: 3.36 µM,–
COc1cccc(C(=O)NC(c2ccccc2)C2CCCC2)c1 (centres undefined),active: 10.6 µM,–
COc1ccc(C2(CNC(=O)/C=C\c3ccco3)CCCC2)cc1OC,"inconclusive: 29.9 µM [inhibitor, single point]",–
Nc1cc(S(=O)(=O)Nc2cc(Cl)ccc2Cl)ccc1N1CCOCC1,active: 1.89 µM,–
O=C(N/N=C/c1ccc(Cl)c([N+](=O)[O-])c1)c1cc(-c2ccccc2)nc2ccccc12,"inconclusive: 8.44 µM [inhibitor, single point]",–
COc1cc2c3c(c1OC)C1(C=CC(=NNC(N)=O)C=C1)CC3N(C(C)=O)CC2 (centres undefined),"inconclusive: 8.44 µM [inhibitor, partial curve]",–
COc1ccc(-n2c(O)c(/C=N/NS(=O)(=O)c3ccc(C)c([N+](=O)[O-])c3)c3ccccc3c2=O)cc1OC,–,inactive: 18.3% and inactive: 22.1%
COc1ccc2nc(-c3cccc(N)c3)[nH]c2c1,–,inactive: -4.41%
Cc1c(O)c2ccccc2n(-c2ccccc2)c1=O,–,inactive: 0.0233%
C/C(=C\c1ccccc1)C(=O)n1nnc2ccccc21,"inconclusive: 2.99 µM [inhibitor, partial curve]",–
Cc1sc2nc3c(C(=O)N4CCCC4)cc(C(=O)c4ccccc4O)cn3c(=O)c2c1C,active: 23.8 µM,–
CS(=O)(=O)Nc1cccc(C2=NN(S(=O)(=O)c3ccc(F)cc3)C(c3cccs3)C2)c1 (centres undefined),"inconclusive: 23.8 µM [inhibitor, single point]",–
Cc1ccc(S(=O)(=O)Nc2ccc(C(=O)N3CCN(c4ccccc4O)CC3)cc2)cc1[N+](=O)[O-],"inconclusive: 67 µM [inhibitor, partial curve]",–
Cc1ccc(CSCCNC(=O)CN(c2ccccc2)S(C)(=O)=O)cc1,"inconclusive: 29.9 µM [inhibitor, single point]",–
COc1ccc(NC(C)C(=O)N/N=C/c2c(O)ccc3ccccc23)cc1 (centres undefined),–,inactive: -7.3%
CCCCNCCOCCOc1ccc(C)cc1Br,–,inactive: 4.19%
CCC(=O)N(C)CCc1cc2c(c(OC)c1/C=N/NC(=O)c1ccc(Br)cc1)OCO2,active: 23.8 µM,–
CC1(CC(=O)N/N=C/c2cc([N+](=O)[O-])c(O)cc2O)OCCO1,active: 9.47 µM,–
Cc1cc(C)nc(NS(=O)(=O)c2ccc(N/C=C\C(=O)c3cccs3)cc2)n1,active: 26.7 µM,–
Clc1cccc(Cc2c(-c3ccco3)nc3ccc(Cl)cn23)c1,active: 11.9 µM,–
CN(c1ccccc1)S(=O)(=O)c1ccc(Cl)c(C(=O)OCC(=O)c2c(N)n(C)c(=O)n(C)c2=O)c1,–,inactive: -8.11%
CN(C)c1ccc(C=NCC2(O)CCOC(C)(C)C2)cc1 (centres undefined),–,inactive: 0.149%

SMILES,Potency,"max response, negative = inhibition"
CC1(C)CC2CC(C)(CN2c2ncnc3ccccc23)C1 (centres undefined),–,inactive: 0.635%
O=c1nc(NC2CCCC2)ccn1Cc1cccc(Br)c1,–,inactive: -4.75%
CCN(CC)S(=O)(=O)c1ccc2oc(C(=O)NCC3COc4ccccc4O3)c(C)c2c1 (centres undefined),"inconclusive: 21.2 µM [inhibitor, single point]",–
CCCC(=O)Nc1ccc(N2CCCCC2)cc1,"inconclusive: 29.9 µM [inhibitor, partial curve]",–
Cc1ccc(OCC(O)CN2CCN(CC(O)COC(C)C)CC2)c(C(C)(C)C)c1 (centres undefined),–,inactive: 4.47%
O=S1(=O)CC(N2CC=CC2)CN1Cc1cn(Cc2ccc(Cl)cc2)nn1 (centres undefined),–,inactive: -1.96%
Cc1cc(C)n(-c2ccc(C(=O)OCC(=O)Nc3cc(Cl)ccc3[N+](=O)[O-])cc2)n1,"inconclusive: 37.7 µM [inhibitor, partial curve, poor fit]",–
CC(C)C(=O)N1CCN(c2ccccc2NC(=O)c2ccc(Br)o2)CC1,–,inactive: -5.71%
O=C(/C=C/c1ccccc1Cl)Nc1ccc2c(c1)C(=O)NC2=O,–,inconclusive: -30.6% [inhibitor]
CCOC(=O)C1=C(CSc2nc(-c3ccncc3)ccc2C#N)OC(N)=C(C#N)C1c1ccc(OC)cc1 (centres undefined),–,inactive: 0.0518%
CC(=O)Nc1ccc(S(=O)(=O)NC(C)C(=O)NCC(c2ccco2)N(C)C)cc1 (centres undefined),"inconclusive: 26.7 µM [inhibitor, single point]",–
NC(=O)c1ccc(N=C2C(=O)Nc3ccc([N+](=O)[O-])cc32)cc1,"inconclusive: 29.9 µM [inhibitor, partial curve, poor fit]",–
COc1ccc(CC(C)N2CCN(Cc3ccccc3)CC2)cc1OC (centres undefined),–,inactive: -13.5%
C/C(=N\Nc1ccc(C(=O)O)cc1)c1ccc2c(c1)Nc1ccccc1S2,active: 29.9 µM,–
CCOC(=O)[C@@H]1[C@H]2COc3ccccc3[C@@H]2N2C(=O)N(c3cccc(Cl)c3)C(=O)[C@]12C,"inconclusive: 33.6 µM [inhibitor, single point]",–
Cc1ncc(CO)c(/C=N/NC(=S)Nc2ccc(C(C)C)cc2)c1O,active: 11.9 µM,–
COc1ccc(OC)c(NC(=O)CN(Cc2ccc(Cl)cc2)S(C)(=O)=O)c1,"inconclusive: 29.9 µM [inhibitor, single point]",–
Cc1ccc(OCCNC(=O)c2ccc(NC(=O)CC3SC(N4CCCC4)=NC3=O)cc2)cc1 (centres undefined),–,inactive: -12.6%
O=C(O)c1ccc(NC(=S)Nc2ccccc2)cc1,"inconclusive: 29.9 µM [inhibitor, single point]",–
CCCCCCC(=O)N(O)C1CC(=O)N(c2ccc(F)cc2)C1=O (centres undefined),active: 26.7 µM,–
Cc1ccc(S(=O)(=O)Nc2ccc3nc(N)sc3c2)cc1,–,inactive: -19.7%
Cc1cc(C)cc(-n2ncc3c2CCCC3NC(=O)CN2CCCCC2=O)c1 (centres undefined),–,inactive: 1.88%
CCCCOc1ccc(C(=O)OCC(=O)Nc2cc(C)c(C)cc2[N+](=O)[O-])cc1,–,inconclusive: -30% [inhibitor]
COc1ccc(CNC(=O)CC(C)S(=O)(=O)c2ccc3c(c2)NC(=O)CO3)cc1 (centres undefined),active: 23.8 µM,–
